Measured values as given in article PMC10328928.
Results are given in words; binding and its absence hold for the method and conditions named. Some binding calls cover weakened binding; strength is not graded here.

By UniProt entry, the sequences of proteins in these tests, tags left out. Residues count along the entry.
UniProt Q93034, residues 12-780: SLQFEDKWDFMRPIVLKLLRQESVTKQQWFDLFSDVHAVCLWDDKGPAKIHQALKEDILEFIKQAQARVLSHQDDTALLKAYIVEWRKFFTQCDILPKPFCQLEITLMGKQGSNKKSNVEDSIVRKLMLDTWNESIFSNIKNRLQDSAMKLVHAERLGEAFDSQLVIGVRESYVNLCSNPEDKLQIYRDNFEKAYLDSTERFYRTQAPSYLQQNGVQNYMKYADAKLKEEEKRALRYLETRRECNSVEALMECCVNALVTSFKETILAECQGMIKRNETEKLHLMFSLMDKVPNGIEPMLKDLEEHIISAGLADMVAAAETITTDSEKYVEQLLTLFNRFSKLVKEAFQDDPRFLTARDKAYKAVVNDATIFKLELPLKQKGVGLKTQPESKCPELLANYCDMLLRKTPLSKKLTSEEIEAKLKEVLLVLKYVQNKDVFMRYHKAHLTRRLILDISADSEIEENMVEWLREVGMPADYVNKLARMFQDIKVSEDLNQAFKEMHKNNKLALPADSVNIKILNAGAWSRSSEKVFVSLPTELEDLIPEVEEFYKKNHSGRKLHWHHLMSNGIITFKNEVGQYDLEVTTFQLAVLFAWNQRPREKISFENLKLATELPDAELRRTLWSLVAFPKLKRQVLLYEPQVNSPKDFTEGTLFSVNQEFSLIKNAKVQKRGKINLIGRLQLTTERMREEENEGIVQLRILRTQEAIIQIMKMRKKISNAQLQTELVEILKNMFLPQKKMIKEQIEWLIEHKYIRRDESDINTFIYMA
UniProt Q9UBF6: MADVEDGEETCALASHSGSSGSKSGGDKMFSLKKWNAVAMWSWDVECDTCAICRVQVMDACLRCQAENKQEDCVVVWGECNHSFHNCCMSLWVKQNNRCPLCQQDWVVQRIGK

Target: human cullin-5, CUL5 (amino acid residues S12 to A780) (human) (UniProt Q93034)
Assay: co-expression and co-purification

Substance: human RING-box protein 2, Rbx2 (M1 to K113) (from UniProt Q9UBF6 1-113)
- binding: binds
